# Screening data

Data taken from PubChem BioAssay AID1053133, deposited by Broad Institute (2014).

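Plate-reader measure of the Venus reporter marking one vaccinia stage in infected cells (the cell line is not named here); read time unknown. The test concentration is not given here. Percent change in Venus reporter signal; lower (more negative) values mean stronger inhibition of that viral stage.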

Values are in %. How 0% and 100% were set is not given here. Common to all entries: measured here: Venus reporter, other viral stage. Part of the compounds only, not a random draw; the main read-out is not listed here.

C[C@@H]1CN([C@@H](C)CO)S(=O)(=O)c2ccc(C#Cc3cccc(F)c3)cc2O[C@@H]1CN(C)S(=O)(=O)c1cn(C)cn1 gave activity change (Venus) -70.82%. With COc1ccc2c3c(n(C)c2c1)[C@H](CO)N(C(=O)Nc1ccc(F)cc1)CC31CCN(C(=O)c2ccccc2F)CC1 the assay gave activity change (Venus) -48.46%. CN1c2ccc(Br)cc2[C@@H]2[C@@H](CCN2C(=O)Cc2ccccc2)[C@@H]1CO gave activity change (Venus) -33.61%. Result for C[C@H](CO)N1C[C@H](C)[C@H](CN(C)CC2CCCCC2)Oc2ccc(NC(=O)Nc3cccc4ccccc34)cc2C1=O was activity change (Venus) -35.69%. C[C@@H]1CCCCO[C@@H](CN(C)C(=O)C2CCCCC2)[C@H](C)CN([C@H](C)CO)C(=O)c2cc(NC(=O)C3CCCCC3)ccc2O1 read activity change (Venus) -31.47%. C[C@@H]1CN([C@@H](C)CO)C(=O)c2cc(-c3ccc(C#N)cc3)cnc2O[C@H]1CN(C)CC1CCCCC1 read activity change (Venus) -25.28%.

Result for COc1ccc(NC(=O)N2CCCCN3[C@H](CO)[C@H](c4ccc(C#Cc5ccccc5)cc4)[C@H]3C2)cc1 was activity change (Venus) -70.72%. C[C@@H]1CN([C@@H](C)CO)S(=O)(=O)c2ccc(-c3ccccc3)cc2O[C@@H]1CN(C)Cc1cccc(F)c1 gave activity change (Venus) -29.72%. For COc1cccc(S(=O)(=O)Nc2ccc3c(c2)[C@H]2C[C@H](CC(=O)N[C@@H](C)c4ccccc4)O[C@@H](CO)[C@H]2O3)c1 the result was activity change (Venus) -30.8%. For C[C@@H]1CCCCO[C@H](CN(C)C(=O)Nc2ccc(C(F)(F)F)cc2)[C@H](C)CN([C@@H](C)CO)C(=O)c2cc(NC(=O)c3ccncc3)ccc2O1 the result was activity change (Venus) -35.68%. Result for CN1C(=O)c2cc(NC(=O)c3ccc(F)c(F)c3)ccc2OC[C@@H]2O[C@H](CC(=O)N[C@H]3CCN(Cc4ccccc4)C3)CC[C@@H]21 was activity change (Venus) -35.34%. For Cc1noc(C)c1NC(=O)Nc1ccc2c(c1)C(=O)N([C@@H](C)CO)C[C@H](C)[C@@H](CN(C)Cc1ccc(C(F)(F)F)cc1)OCCCC[C@H](C)O2 the result was activity change (Venus) -51.19%.

O=C(C1CC1)N1CC(=O)N2[C@H](C1)[C@H](c1ccc(C#CC3CCCC3)cc1)[C@@H]2CO read activity change (Venus) -44.76%. With C[C@H]1CN([C@@H](C)CO)C(=O)c2cccc(NC(=O)c3ccc(-c4nccs4)cc3)c2O[C@@H]1CN(C)Cc1ccccc1 the assay gave activity change (Venus) -27.48%. Result for C[C@@H]1CN([C@H](C)CO)C(=O)c2cc(NS(=O)(=O)c3ccc(Cl)cc3)ccc2O[C@@H](C)CCCCO[C@H]1CN(C)Cc1ccccc1 was activity change (Venus) -74.28%. C[C@@H]1CN([C@@H](C)CO)S(=O)(=O)c2ccc(-c3ccncc3)cc2O[C@H]1CN(C)Cc1ccccc1 gave activity change (Venus) -37.18%. For C[C@@H]1CN([C@@H](C)CO)C(=O)c2c(c3ccccc3n2C)-c2ccccc2CO[C@H]1CN(C)C(=O)Nc1ccccc1C(F)(F)F the result was activity change (Venus) -59.34%. CN1c2ccc(-c3cccc(C#N)c3)cc2[C@@H]2[C@@H](CCN2C(=O)C2CCCCC2)[C@@H]1CO read activity change (Venus) -56.78%.

Result for C[C@@H]1CCCCO[C@@H](CN(C)Cc2ccc(Cl)c(Cl)c2)[C@@H](C)CN([C@@H](C)CO)C(=O)c2cc(NC(=O)CCC(F)(F)F)ccc2O1 was activity change (Venus) -71.71%. COc1ccc(S(=O)(=O)Nc2ccc3c(c2)C(=O)N([C@@H](C)CO)C[C@H](C)[C@@H](CN(C)C(=O)NC2CCCCC2)OCCCC[C@@H](C)O3)cc1 read activity change (Venus) -22.78%. Result for C[C@H]1CN([C@@H](C)CO)C(=O)c2c(c3ccccc3n2C)-c2ccccc2CO[C@H]1CN(C)Cc1ccccc1 was activity change (Venus) -42.31%. With Cc1ccc(-c2ccc3c(c2)O[C@H](CN(C)C(=O)Nc2ccccc2)[C@@H](C)CN([C@H](C)CO)S3(=O)=O)cc1 the assay gave activity change (Venus) -60.66%. CCC(=O)N(C)C[C@H]1Oc2cc(C#Cc3ccccc3)ccc2S(=O)(=O)N([C@@H](C)CO)C[C@H]1C read activity change (Venus) -42.74%. With C[C@H]1CN([C@@H](C)CO)C(=O)c2cc(NS(=O)(=O)c3ccc(F)cc3)ccc2O[C@@H]1CN(C)Cc1ccc(Cl)c(Cl)c1 the assay gave activity change (Venus) -29.96%.

For C/C=C/c1ccc([C@@H]2[C@H](CO)N3CCCCN(C(=O)Nc4cc(F)ccc4F)C[C@@H]23)cc1 the result was activity change (Venus) -52.64%. With O=C(C[C@@H]1CC[C@H]2[C@@H](COC[C@H](O)CN2CCc2ccccc2)O1)NCc1ccc(Oc2ccccc2)cc1 the assay gave activity change (Venus) -43.53%. For COc1ccccc1C#Cc1ccc([C@H]2[C@H](CO)N3CCCCN(C(=O)C4CC4)C[C@@H]23)cc1 the result was activity change (Venus) -36.57%. With CC(C)CC#Cc1ccc2c(c1)O[C@@H](CN(C)CC1CCOCC1)[C@@H](C)CN([C@@H](C)CO)S2(=O)=O the assay gave activity change (Venus) -52.08%. With COCC(=O)N1CCCCN2[C@@H](CO)[C@@H](c3ccc(C#Cc4ccc(OC)cc4)cc3)[C@@H]2C1 the assay gave activity change (Venus) -41.18%. C[C@H](CO)N1C[C@H](C)[C@H](CN(C)C(=O)c2ccccc2)Oc2cc(/C=C/c3ccccc3)ccc2S1(=O)=O gave activity change (Venus) -33.66%.

With O=C(c1cccnc1)N1C[C@@H]2N[C@H](C1)C2c1ccc(-c2cccnc2)cc1 (some centres unmarked) the assay gave activity change (Venus) -45.36%. Result for O=C(Nc1ccc(Cl)cc1)N[C@H]1CC[C@@H](CCn2cc(Cc3ccccc3)nn2)O[C@@H]1CO was activity change (Venus) -28.48%. For C[C@@H]1CCCCO[C@@H](CN(C)Cc2ccc(C(=O)O)cc2)[C@H](C)CN([C@@H](C)CO)C(=O)c2cc(NS(=O)(=O)c3cccs3)ccc2O1 the result was activity change (Venus) -11.63%. Result for Cc1ccc(S(=O)(=O)Nc2ccc3c(c2)C(=O)N([C@H](C)CO)C[C@@H](C)[C@H](CN(C)CC2CCCCC2)OCCCC[C@@H](C)O3)cc1 was activity change (Venus) -67.49%. For COc1ccc(C#Cc2ccc3c(c2)O[C@H](CN(C)C)[C@H](C)CN([C@H](C)CO)S3(=O)=O)cc1 the result was activity change (Venus) -41.25%. For COc1ccc(-c2ccc3c(c2)[C@H]2[C@H](CCN2S(=O)(=O)c2ccc(OC)cc2)[C@@H](CO)N3C)cc1 the result was activity change (Venus) -45.48%.

With CCC(=O)N(C)C[C@H]1Oc2cc(C#Cc3ccccc3)ccc2S(=O)(=O)N([C@@H](C)CO)C[C@@H]1C the assay gave activity change (Venus) -50.17%.

The first 4 entries again:

SMILES	activity change (Venus) (%)
C[C@@H]1CN([C@@H](C)CO)S(=O)(=O)c2ccc(C#Cc3cccc(F)c3)cc2O[C@@H]1CN(C)S(=O)(=O)c1cn(C)cn1	-70.82
COc1ccc2c3c(n(C)c2c1)[C@H](CO)N(C(=O)Nc1ccc(F)cc1)CC31CCN(C(=O)c2ccccc2F)CC1	-48.46
CN1c2ccc(Br)cc2[C@@H]2[C@@H](CCN2C(=O)Cc2ccccc2)[C@@H]1CO	-33.61
C[C@H](CO)N1C[C@H](C)[C@H](CN(C)CC2CCCCC2)Oc2ccc(NC(=O)Nc3cccc4ccccc34)cc2C1=O	-35.69